# According to the supplement of paper PMC8728848:
# The other results are listed elsewhere or left out.
# Tests used:
# Assay in all cases: glycan array binding signal (z-score within array); higher = stronger binding
# Conditions in all cases: glycan notation: IUPAC condensed, linker removed
# [1] = target: Gal(b1-3)GalNAc(b1-3)Gal(a1-4)Gal(b1-4)Glc
# How it was run: (§1)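 The Consortium for Functional Glycomics database supplied 3228 glycan arrays, of which those lacking an available protein sequence were dropped. The binding signal, a within-array Z-score, was averaged across arrays of the same protein sequence and across linkers. Negative scores can be read as non-binding.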
# [2] = target: Gal(b1-3)GalNAc(b1-4)Gal(b1-4)Glc
# How it was run: as §1
# [3] = target: Gal(b1-3)GalNAc(b1-4)[Neu5Ac(a2-3)]Gal(b1-4)Glc
# How it was run: as §1
# Gal(b1-3)GlcNAc = target: Gal(b1-3)GlcNAc
# How it was run: as §1
# [4] = target: Gal(b1-3)GlcNAc(a1-3)Gal(b1-4)GlcNAc
# How it was run: as §1
# [5] = target: Gal(b1-3)GlcNAc(a1-6)Gal(b1-4)GlcNAc
# How it was run: as §1
# Gal(b1-3)GlcNAc(b1-2)Man = target: Gal(b1-3)GlcNAc(b1-2)Man
# How it was run: as §1
# [6] = target: Gal(b1-3)GlcNAc(b1-2)Man(a1-3)[Gal(b1-3)GlcNAc(b1-2)Man(a1-6)]Man(b1-4)GlcNAc(b1-4)GlcNAc
# How it was run: as §1
# [7] = target: Gal(b1-3)GlcNAc(b1-2)Man(a1-3)[Gal(b1-3)GlcNAc(b1-2)Man(a1-6)]Man(b1-4)GlcNAc(b1-4)[Fuc(a1-6)]GlcNAc
# How it was run: as §1
# [8] = target: Gal(b1-3)GlcNAc(b1-2)Man(a1-3)[GlcNAc(b1-4)][Gal(b1-3)GlcNAc(b1-2)Man(a1-6)]Man(b1-4)GlcNAc(b1-4)GlcNAc
# How it was run: as §1
# [9] = target: Gal(b1-3)GlcNAc(b1-2)[Gal(b1-3)GlcNAc(b1-6)]Man(a1-6)[Gal(b1-3)GlcNAc(b1-2)Man(a1-3)]Man(b1-4)GlcNAc(b1-4)GlcNAc
# How it was run: as §1
# [10] = target: Gal(b1-3)GlcNAc(b1-3)Gal(b1-3)GlcNAc
# How it was run: as §1
# [11] = target: Gal(b1-3)GlcNAc(b1-3)Gal(b1-4)Glc
# How it was run: as §1
# [12] = target: Gal(b1-3)GlcNAc(b1-3)Gal(b1-4)GlcNAc
# How it was run: as §1
# [13] = target: Gal(b1-3)GlcNAc(b1-3)Gal(b1-4)GlcNAc(b1-2)Man(a1-3)[Gal(b1-3)GlcNAc(b1-3)Gal(b1-4)GlcNAc(b1-2)Man(a1-6)]Man(b1-4)GlcNAc(b1-4)GlcNAc
# How it was run: as §1
# [14] = target: Gal(b1-3)GlcNAc(b1-3)Gal(b1-4)GlcNAc(b1-2)[Gal(b1-3)GlcNAc(b1-3)Gal(b1-4)GlcNAc(b1-6)]Man(a1-6)[Gal(b1-3)GlcNAc(b1-3)Gal(b1-4)GlcNAc(b1-2)Man(a1-3)]Man(b1-4)GlcNAc(b1-4)[Fuc(a1-6)]GlcNAc
# How it was run: as §1
# [15] = target: Gal(b1-3)GlcNAc(b1-3)Gal(b1-4)GlcNAc(b1-3)Gal(b1-4)GlcNAc(b1-2)[Gal(b1-3)GlcNAc(b1-3)Gal(b1-4)GlcNAc(b1-3)Gal(b1-4)GlcNAc(b1-6)]Man(a1-6)[Gal(b1-3)GlcNAc(b1-3)Gal(b1-4)GlcNAc(b1-3)Gal(b1-4)GlcNAc(b1-2)Man(a1-3)]Man(b1-4)GlcNAc(b1-4)[Fuc(a1-6)]GlcNAc
# How it was run: as §1
# [16] = target: Gal(b1-3)GlcNAc(b1-3)Gal(b1-4)GlcNAc(b1-6)[Gal(b1-3)GlcNAc(b1-3)]Gal(b1-4)Glc
# How it was run: as §1
# [17] = target: Gal(b1-3)GlcNAc(b1-3)Gal(b1-4)[Fuc(a1-3)]GlcNAc
# How it was run: as §1
# [18] = target: Gal(b1-3)GlcNAc(b1-3)Gal(b1-4)[Fuc(a1-3)]GlcNAc(b1-6)[Gal(b1-3)GlcNAc(b1-3)]Gal(b1-4)Glc
# How it was run: as §1
# [19] = target: Gal(b1-3)GlcNAc(b1-3)GalNAc
# How it was run: as §1
# [20] = target: Gal(b1-3)GlcNAc(b1-6)Gal(b1-4)GlcNAc
# How it was run: as §1
# [21] = target: Gal(b1-3)GlcNAc(b1-6)GalNAc
# How it was run: as §1
# [22] = target: Gal(b1-3)GlcNAc(b1-6)[Gal(b1-3)]GalNAc
# How it was run: as §1
# Gal(b1-3)GlcNAc6S = target: Gal(b1-3)GlcNAc6S
# How it was run: as §1
# [23] = target: Gal(b1-3)[Fuc(a1-4)]GlcNAc
# How it was run: as §1
# [24] = target: Gal(b1-3)[Fuc(a1-4)]GlcNAc(b1-2)Man
# How it was run: as §1
# [25] = target: Gal(b1-3)[Fuc(a1-4)]GlcNAc(b1-2)Man(a1-3)[Gal(b1-3)[Fuc(a1-4)]GlcNAc(b1-2)Man(a1-6)]Man(b1-4)GlcNAc(b1-4)[Fuc(a1-6)]GlcNAc
# How it was run: as §1
# [26] = target: Gal(b1-3)[Fuc(a1-4)]GlcNAc(b1-3)Gal(b1-3)[Fuc(a1-4)]GlcNAc
# How it was run: as §1
# [27] = target: Gal(b1-3)[Fuc(a1-4)]GlcNAc(b1-3)Gal(b1-4)[Fuc(a1-3)]GlcNAc
# How it was run: as §1
# [28] = target: Gal(b1-3)[Fuc(a1-4)]GlcNAc(b1-6)GalNAc
# How it was run: as §1
# [29] = target: Gal(b1-3)[GlcNAc(b1-6)]GalNAc
# How it was run: as §1
# [30] = target: Gal(b1-3)[Neu5Ac(a2-6)]GalNAc
# How it was run: as §1
# [31] = target: Gal(b1-3)[Neu5Ac(a2-6)]GlcNAc(b1-4)Gal(b1-4)Glc
# How it was run: as §1
# [32] = target: Gal(b1-3)[Neu5Ac(b2-6)]GalNAc
# How it was run: as §1
# Gal(b1-4)Gal = target: Gal(b1-4)Gal
# How it was run: as §1
# [33] = target: Gal(b1-4)GalNAc(a1-3)[Fuc(a1-2)]Gal(b1-4)GlcNAc
# How it was run: as §1
# [34] = target: Gal(b1-4)GalNAc(b1-3)[Fuc(a1-2)]Gal(b1-4)GlcNAc
# How it was run: as §1
binder,measurement,setting,value
PX14375A-pdi-503-28-503 (Parabacteroides distasonis) (protein) PLGSPEAGDISEERQAFLRLTAVYSVMKDFRYTWSMQCFGDVLSNDATYSGSSNDAQTFTLLENYQYQADHTEILNKYRYSYQCINKANLFIRDMEMADDALFSKYDKEQMIGEAKFIRAYTYFELVKTFGGVPCYTGVLDLDHERLGRASVEEIYSVIEQDLNDAVSVLPKKSEVANYESSYAGRITKGAAIAMQTRIYLYEKKYDEVKKAFEKFQNECGGEYSLVAPEDYTWQFSLDGEHCSSSILEVNMYNSSTQSSYNVNNGNRHVLMSMPRNMTIGFGCAQPTQALADAYDAEGDVIRKKTTLLSTEEAIEIETAAKGDVAPVTDDRTGWYNRKLYLAPGQREENRGNNQPTNLRLIRLAEVYLNYAEACYFSGDIANAQKYLNEVRSHVNLAPKNHTGSQLFEDIMNERHLEFGMEGFRFFDVVRVGWGEKVFNGTKKAEFGAKTPFSAGAEVLPIPQTEIDISDGLITN,glycan array binding signal (z-score),[1],-0.901
same,glycan array binding signal (z-score),[2],-0.745
same,glycan array binding signal (z-score),[3],0.273
same,glycan array binding signal (z-score),Gal(b1-3)GlcNAc,-0.179
same,glycan array binding signal (z-score),[4],0.207
same,glycan array binding signal (z-score),[5],0.019
same,glycan array binding signal (z-score),Gal(b1-3)GlcNAc(b1-2)Man,-0.555
same,glycan array binding signal (z-score),[6],0.122
same,glycan array binding signal (z-score),[7],-0.507
same,glycan array binding signal (z-score),[8],0.244
same,glycan array binding signal (z-score),[9],-0.545
same,glycan array binding signal (z-score),[10],0.181
same,glycan array binding signal (z-score),[11],10.3
same,glycan array binding signal (z-score),[12],-0.194
same,glycan array binding signal (z-score),[13],-0.098
same,glycan array binding signal (z-score),[14],0.404
same,glycan array binding signal (z-score),[15],1.01
same,glycan array binding signal (z-score),[16],-0.395
same,glycan array binding signal (z-score),[17],-0.413
same,glycan array binding signal (z-score),[18],-0.628
same,glycan array binding signal (z-score),[19],-0.288
same,glycan array binding signal (z-score),[20],-0.478
same,glycan array binding signal (z-score),[21],-0.556
same,glycan array binding signal (z-score),[22],-0.261
same,glycan array binding signal (z-score),Gal(b1-3)GlcNAc6S,-0.227
same,glycan array binding signal (z-score),[23],0.284
same,glycan array binding signal (z-score),[24],0.802
same,glycan array binding signal (z-score),[25],0.836
same,glycan array binding signal (z-score),[26],0.345
same,glycan array binding signal (z-score),[27],1.04
same,glycan array binding signal (z-score),[28],0.232
same,glycan array binding signal (z-score),[29],-0.533
same,glycan array binding signal (z-score),[30],-0.33
same,glycan array binding signal (z-score),[31],-0.031
same,glycan array binding signal (z-score),[32],-0.698
same,glycan array binding signal (z-score),Gal(b1-4)Gal,-0.184
same,glycan array binding signal (z-score),[33],-0.798
same,glycan array binding signal (z-score),[34],-0.238

# Quoted from the listing (nine entries):
binder,measurement,setting,value
PX14375A-pdi-503-28-503 (Parabacteroides distasonis) (protein) PLGSPEAGDISEERQAFLRLTAVYSVMKDFRYTWSMQCFGDVLSNDATYSGSSNDAQTFTLLENYQYQADHTEILNKYRYSYQCINKANLFIRDMEMADDALFSKYDKEQMIGEAKFIRAYTYFELVKTFGGVPCYTGVLDLDHERLGRASVEEIYSVIEQDLNDAVSVLPKKSEVANYESSYAGRITKGAAIAMQTRIYLYEKKYDEVKKAFEKFQNECGGEYSLVAPEDYTWQFSLDGEHCSSSILEVNMYNSSTQSSYNVNNGNRHVLMSMPRNMTIGFGCAQPTQALADAYDAEGDVIRKKTTLLSTEEAIEIETAAKGDVAPVTDDRTGWYNRKLYLAPGQREENRGNNQPTNLRLIRLAEVYLNYAEACYFSGDIANAQKYLNEVRSHVNLAPKNHTGSQLFEDIMNERHLEFGMEGFRFFDVVRVGWGEKVFNGTKKAEFGAKTPFSAGAEVLPIPQTEIDISDGLITN,glycan array binding signal (z-score),[11],10.3
same,glycan array binding signal (z-score),[12],-0.194
same,glycan array binding signal (z-score),[13],-0.098
same,glycan array binding signal (z-score),[14],0.404
same,glycan array binding signal (z-score),[15],1.01
same,glycan array binding signal (z-score),[16],-0.395
same,glycan array binding signal (z-score),[17],-0.413
same,glycan array binding signal (z-score),[18],-0.628
same,glycan array binding signal (z-score),[19],-0.288
